Measurements from PubChem BioAssay AID2551 (National Center for Advancing Translational Sciences (NCATS), 2010).
Hit rate of the full screen: of about 310,000 compounds, about 17,000 (5.5%) were called active. The inconclusive results got no clear call from the source; some entries with a clear call stand among them for comparison. Calls come from the whole dose curve; as a rule, active = well fitted inhibition curve with a large enough effect; inconclusive = small, poorly fitted or top-dose-only effect, or effect the other way; inactive = no such curve, though single readings can be large or run the other way. Potencies of inconclusive entries are doubtful fits and often do not repeat.

Chains of the proteins cited; added tags and fusions are not shown. Lines headed by an entry give the natural chain unless they say otherwise; changes in a name come on top.
UniProt P51450: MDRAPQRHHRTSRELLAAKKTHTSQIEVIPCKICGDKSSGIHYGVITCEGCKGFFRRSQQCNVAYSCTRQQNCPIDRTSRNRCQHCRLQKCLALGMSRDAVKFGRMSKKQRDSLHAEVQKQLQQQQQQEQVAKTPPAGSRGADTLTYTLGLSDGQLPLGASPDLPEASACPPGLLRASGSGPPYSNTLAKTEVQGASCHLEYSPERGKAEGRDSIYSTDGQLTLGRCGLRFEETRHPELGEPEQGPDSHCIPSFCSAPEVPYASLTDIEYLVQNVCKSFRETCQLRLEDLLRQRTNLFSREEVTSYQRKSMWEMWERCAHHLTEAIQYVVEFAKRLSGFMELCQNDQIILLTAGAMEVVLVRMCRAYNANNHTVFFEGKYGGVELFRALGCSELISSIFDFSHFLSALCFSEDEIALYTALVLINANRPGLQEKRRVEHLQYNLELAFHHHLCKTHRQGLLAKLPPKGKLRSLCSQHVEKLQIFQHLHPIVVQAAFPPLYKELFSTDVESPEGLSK

The molecules below were run against Nuclear receptor ROR-gamma (Mus musculus) (UniProt P51450) (assay: qHTS for inhibitors of ROR gamma transcriptional activity). Conditions: Drosophila S2 Gal4-RORgamma UAS-luciferase reporter, 20 h; activity change, negative = inhibition: at 53.6 µM (top of the series).
Procedure, shortened: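 Read-out: Photinus luciferase luminescence; inhibitors lower reporter signal. Insect Schneider cells with Gal4-ROR gamma fusion under metallothionein promoter, UAS reporter; 700 uM final copper sulfate induction, 20 hr, ambient temperature.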
% is set by controls: 0 for no effect and ±100 for the full control effect; potency is the fitted concentration of half-maximal effect.
Note: nearly all actives have a fitted effect of over 60% in size.

Potency, inconclusive:
O=C(c1ccc2c(c1)OCO2)N1CCCc2ccccc21 5.62 µM [activator, partial curve]
COc1ccccc1-c1nnc(Sc2nc([N+](=O)[O-])nn2C)o1 15.8 µM [inhibitor, single point]
CCc1cccc(NC(=O)CN2C(=O)NC3(CCCCCCC3)C2=O)c1 10 µM [activator, partial curve]
Cc1cccc(C)c1NC(=O)/C(C#N)=C/c1ccsc1 22.4 µM [inhibitor, single point]
O=C(c1cccc(Cl)c1)c1nn(-c2ccccc2)c(=O)cc1C(F)(F)F 17.8 µM [activator, single point]
Clc1ccc(-c2c[n+](Cc3ccc(Br)cc3)c3n2CCCCC3)cc1 1.12 µM [activator, partial curve, poor fit]
Cc1cc(-c2ccccc2)nc2cc(C(N)=O)nn12 17.8 µM [activator, single point]
COc1ccccc1N=c1oc2cc(O)ccc2cc1C(N)=O 10 µM [inhibitor, partial curve]
Cc1ccc(CSC2=Nc3ccccc3C3=NC(=O)CN23)cc1 31.6 µM [activator, single point]
CCC(C)NC(=O)c1ccc(CSc2nc3ccncc3n2Cc2ccc(F)cc2)cc1 (stereo not given) 15.8 µM [activator, single point]
CN(C)c1cccc(C(=O)N/N=C/c2ccsc2)c1 22.4 µM [inhibitor, single point]
CCCS(=O)(=O)n1nc(-c2ccccc2)cc1N 35.5 µM [activator, single point]
COc1ccc(NS(=O)(=O)c2ccc(F)c(Cl)c2)cn1 10 µM [activator, single point]
N#Cc1cc2c(nc1SCc1ccc(Cl)cc1)CCCC2 31.6 µM [activator, single point]
O=C(O)c1ccc(COc2ccc(CO)cc2Cl)cc1 8.91 µM [inhibitor, single point]
O=C(Nc1ccc(S(=O)(=O)N2CCCCC2)cc1)C1CC(=O)N(c2ccc(Cl)cc2)C1 (stereo not given) 35.5 µM [activator, single point]
O=C(Cn1cc(SCc2ccc(Cl)cc2)c2ccccc21)N1CCOCC1 14.1 µM [activator, single point]
COc1ccccc1OCC(=O)Nc1cc(S(=O)(=O)N2CCCCC2)ccc1N1CCCCC1 20 µM [activator, single point]
COC(=O)c1c(-c2ccccc2)c[nH]c1C 28.2 µM [activator, single point]
Cc1cccc(N2CCN(Cc3nc(-c4cccc(Oc5ccccc5)c4)oc3C)CC2)n1 17.8 µM [inhibitor, single point]
CCC(C)(C)NC(=O)C(c1ccc(OC)cc1)N(C(=O)CCC(=O)Nc1cc(C)on1)C(C)(C)C (stereo not given) 0.1 µM [inhibitor, full curve, poor fit]
Cc1ccc(CCNC(=O)CNC(=S)N(Cc2ccccc2)Cc2cccnc2)cc1 6.31 µM [inhibitor, single point]
COc1ccc(Cn2nnc3c(=O)[nH]c(C4CCN(S(=O)(=O)c5ccc(C)cc5)CC4)nc32)cc1 17.8 µM [activator, single point]
Oc1[nH]c2ccccc2c1N=Nc1ccccc1F 1.41 µM [activator, full curve, poor fit]
O=C(NCc1cn(-c2ccccc2)nc1-c1ccc(F)cc1)c1cccc([N+](=O)[O-])c1 31.6 µM [inhibitor, single point]
S=C(Nc1ccc(Br)cc1Cl)Nn1cnnc1 35.5 µM [inhibitor, single point]
O=C(CC(c1ccccc1)C1CCCCC1=O)c1ccco1 (stereo not given) 0.178 µM [activator, partial curve, poor fit]
CCN(CC)CCC(=O)Nc1cccc2c1C(=O)c1ccccc1C2=O 20 µM [inhibitor, partial curve, poor fit]
C[C@H](NC(=O)/C(C#N)=C/c1ccc(O)c(O)c1)c1ccccc1 35.5 µM [inhibitor, single point]
FC(F)(F)c1cc(-c2ccco2)nc(NCc2ccc(Cl)cc2)n1 31.6 µM [activator, single point]
COc1ccc(C)cc1NC(=O)CN(C)S(=O)(=O)c1ccc2c(c1)c(=O)n(C)c(=O)n2C 14.1 µM [activator, single point]
CS(=O)(=O)N1CCN(c2ccccc2NC(=O)c2ccc(Cl)cc2)CC1 22.4 µM [inhibitor, single point]
CC1CCN(C(=O)CSCC(=O)Nc2nc(-c3cccs3)cs2)CC1 31.6 µM [activator, partial curve, poor fit]
O=C(Nc1ccc(OC(F)(F)F)cc1)c1[nH]ncc1[N+](=O)[O-] 15.8 µM [inhibitor, single point]
CC(C)CNC(=S)N(CCCO)Cc1cc2cc3c(cc2[nH]c1=O)OCO3 8.91 µM [activator, partial curve]
CCOC(=O)CSc1nc2cc(C)cc(C)c2cc1C#N 12.6 µM [inhibitor, partial curve]
CCOc1ccc2nc(NC3=NC(c4ccc(OC)cc4)CC(=O)N3)nc(C)c2c1 (stereo not given) 11.2 µM [inhibitor, single point]
Cc1cc2nnc(SC3CCOC3=O)n2c2ccccc12 (stereo not given) 12.6 µM [inhibitor, single point]

Potency, active:
COc1cccc(Cn2c(=O)c(-c3cn(C)c4ccccc34)nc3cnc(N4CCNCC4)nc32)c1 20 µM
S=C(NC1CC1)NC1CCCc2ccccc21 (stereo not given) 2.24 µM
Cc1nn2c(NC(C)C)c3c(nc2c1-c1ccccc1)CCC3 3.55 µM
COc1ccccc1NC(=S)NCc1ccccc1 14.1 µM
O=[N+]([O-])c1ccc(/C=N/N/C(=N/c2ccccn2)c2ccccn2)cc1 11.2 µM
Cc1ccccc1C(=O)O/N=C(\N)Cc1cccs1 7.94 µM
CC(CCc1ccccc1)NC(=S)NC1CCCCC1 (stereo not given) 2.51 µM
Cc1cc(C)cc(NC(=S)N(CCN(C)C)C(C)c2cccnc2)c1 (stereo not given) 11.2 µM
CCOc1ccccc1-c1cc(-c2n[nH]c(=S)n2CC)c2ccccc2n1 5.62 µM
S=C(Nc1ccc(Oc2ccccc2)cc1)NC1CCCCCC1 1.78 µM
COc1ccccc1-c1cc(C(F)(F)F)nc(S(=O)(=O)CCCC(=O)NCc2ccc(F)cc2)n1 8.91 µM
Cc1ccccc1OCC(=O)NC(=S)Nc1ccc(N2CCCC2)cc1 8.91 µM
CCNC(=S)N/N=C(\C)c1cccc(C(F)(F)F)c1 1.26 µM

Activity change, negative = inhibition, inactive:
O=C(Nc1ccccc1-c1ccccc1)c1ccc(=O)[nH]n1 35.6%
CCC(=O)Nc1nnc(SCCOC)s1 0.0984%
CSc1nc(N(C)NC(=O)c2ccc(Cl)cc2)c2ccccc2n1 -18.1%
COc1ccccc1N(CC(O)Cn1ccnc1C)S(=O)(=O)c1ccccc1 (stereo not given) 20.2%
CN(C)CCCN(C(=O)c1ccc(S(=O)(=O)N2CCOCC2)cc1)c1nc2ccc(F)cc2s1 2.56%
COc1ccc(NC(=O)c2cc(C)on2)cc1 -7.1%
O=C1C2C3C=CC(C3)C2C(=O)N1c1cccc(-c2nc3ccccc3o2)c1 (stereo not given) 19.7%
CNC1=C([N+](=O)[O-])CC([N+](=O)[O-])=C(N2CCNCC2)N1C -15.1%
COc1ccc(/C=C/c2cc(OC)c(OC)cc2CC[N+](C)(C)C)cc1 -9.86%
CCC(OC(=O)c1ccco1)C(=O)NCc1ccc2c(c1)OCO2 (stereo not given) -8.59%
CCOC(=O)N1CCN(C(=O)CSc2nnc(-c3ccc(Cl)s3)o2)CC1 0.395%
Oc1cccc(O)c1O -14.6%
Cc1ccnc(NS(=O)(=O)c2ccc(N3C(=O)Nc4ccccc4N3O)cc2)c1 -4.47%
Cc1nc2ccccc2n1CC(=O)N/N=C/c1cccs1 -16.8%
O=[n+]1c2c(n([O-])c3c1CCCC3)CCCCC2 -12.9%
CC(C)(Cc1ccc(O)cc1)NC(=O)CC(=O)N=Nc1c(O)[nH]c2cc(Br)ccc12 14.1%
COC(=O)[C@@H](Cc1c[nH]c2ccccc12)NC(=O)CCC(=O)c1ccc(F)cc1 11.3%
COc1ccc(C(=O)N/N=C(/C)c2cccc(NC(=O)c3ccccc3F)c2)cc1 24.3%
CC1CN(CCCCOc2ccc(F)cc2)CC(C)O1 (stereo not given) 19.4%
O=C(COc1cccc2ccccc12)NNC(=O)c1cccs1 -17.1%
CSCC[C@H](N)C(=O)N[C@@H](CO)C(=O)N[C@@H](CCCN=C(N)N)C(=O)N1CCC[C@H]1C(=O)N[C@@H](C)C(=O)N[C@@H](CS)C(=O)N1CCC[C@H]1C(=O)N[C@@H](CC(N)=O)C(=O)N[C@@H](CC(=O)O)C(=O)N[C@@H](CCCCN)C(=O)N[C@@H](Cc1ccc(O)cc1)C(=O)N[C@@H](CCC(=O)O)C(=O)O 7.66%
COCCNc1ncncc1-c1ccccc1OC 6.97%
CCCOc1cccc(C(=O)Nc2ccccc2C(=O)N2CCN(C)CC2)c1 -0.522%
COc1ccc(CN(C)CC(=O)Nc2ccccc2-c2ccccc2)c(OC)c1 4.88%

A draw from above in order of number of heavy atoms, high to low:
Activity change, negative = inhibition, inactive:
COc1ccc(/C=C/c2cc(OC)c(OC)cc2CC[N+](C)(C)C)cc1 -9.86%
COCCNc1ncncc1-c1ccccc1OC 6.97%
CCC(=O)Nc1nnc(SCCOC)s1 0.0984%
